Library screen at single concentrations

The chains behind the UniProt entries cited, without tags or fusion partners.
UniProt P9WFT3, whole entry: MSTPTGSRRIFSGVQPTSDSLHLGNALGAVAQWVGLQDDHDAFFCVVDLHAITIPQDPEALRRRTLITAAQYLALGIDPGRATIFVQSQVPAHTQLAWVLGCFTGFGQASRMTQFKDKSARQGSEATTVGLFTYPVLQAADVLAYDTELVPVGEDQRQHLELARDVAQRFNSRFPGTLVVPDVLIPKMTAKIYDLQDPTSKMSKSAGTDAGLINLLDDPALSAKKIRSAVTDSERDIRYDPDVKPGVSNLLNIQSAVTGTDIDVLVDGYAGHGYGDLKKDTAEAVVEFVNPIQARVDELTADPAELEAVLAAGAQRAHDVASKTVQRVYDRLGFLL

Measurements from “University of Dundee, Small-Polar-MMV Screening Library” (2021), ChEMBL document CHEMBL3988442.

Values are the deposited “Percent Effect”, in %.
The record does not define 0% and 100%; most values in the screen are far below 50% and negative numbers occur (in some assays of this library far below -100).
Compounds were drawn at random from those tested, without regard to their results.
Two or more numbers in one place are separate tests of the same structure; such repeats can differ widely.
A dash means the value is not listed here; it may have been measured.

A: 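Cell assay of Leishmania donovani living inside macrophages; the read-out is not stated. Concentration: 30 µM. Direction is inferred from retests: higher values go with stronger inhibition. Size under these conditions: about 69,000 compounds, about 1,000 of them at 50% or above in at least one test.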
B: 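Tryptophan-tRNA ligase, Mycobacterium tuberculosis (UniProt P9WFT3). Enzyme assay of tryptophanyl-tRNA synthetase; the read-out is not stated. Compounds at 10 µM. Higher most likely means stronger inhibition; the record gives no direction and few retests gave an IC50. Of about 65,000 compounds tested this way, about 64 (0.098%) reached 50% or more in at least one test.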
C: 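Whole-parasite assay of Trypanosoma brucei over 72 hours; the read-out is not stated. Compounds at 30 µM. Direction is inferred from retests: higher values go with stronger inhibition. Values scatter widely below zero; nearly all retest evidence comes from the higher of the two concentrations used. About 64,000 compounds were tested under these conditions; 1.5% (about 940) showed 50% or more at least once.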

compound | A | B | C
COCCn1cc(NC(=O)NCC2CCN(c3ccccc3)C2)cn1 (configuration not stated) | 19.43% | 3.183% | -68.77%
Cc1nc(CN2CCc3ncnc(-c4ccc(F)cc4)c3CC2)cs1.O=C(O)C(F)(F)F | 28.65% | - | -
CN1CC[C@]2(CN(S(C)(=O)=O)C[C@H]2c2ccccc2)C1=O | 5.578% | - | -35.05%
Cc1ccccc1C(C(=O)N(C)CCc1cnn(C)c1)N(C)C (configuration not stated) | 20.61% | -1.547% | -9.407%
CC(C)CN1CCC(c2nnc(CN3CCCC3)n2C2CC2)CC1 | 13.43% | -4.238% | 8.827%
COc1cc(NCC(O)CN2CCCCCC2)ncn1 (configuration not stated) | 20.37% | 3.295% | -55.44%
O=S(=O)(C1CC1)N1CCc2ncnc(-c3ccc(F)cc3)c2CC1 | 6.994% | 3.456% | -
CCOc1c(CNCCCn2ccnc2)cc(Cl)cc1OC | - | -1.952% | -
[H][C@]12CC[C@]([H])(CN(c3nc(C)nc4sccc34)C1)[C@@H]2OC | 56.76% | - | -7.169%
CCCC(NC(=O)c1occc1C)c1nnn[nH]1 (configuration not stated) | 9.521% | 6.879% | 18.2%
COCCN1CCC(CNC(=O)Nc2ccc(-c3ccccc3)cc2)C1 (configuration not stated) | 93.25% | 2.658% | 100.6%
Cc1nn(-c2ccccc2)c(C)c1-c1ccnc(N2CCCOCC2)n1 | 8.037% | -14.59% | 14.02%
CNC(=O)[C@@H]1C[C@H]2CN(c3ncccn3)C[C@H]2N1C(C)C | - | 1.621% | -
CCCn1cc(-c2cc(-c3cc(CC)n[nH]3)c(C#N)c(N)n2)c(C)n1 | -4.35% | 1.127% | 41.43%
Cc1cc(S(=O)(=O)NC(C)(C)CN)c(F)cc1F.Cl | -15.34% | - | -23.52%
CO[C@@H]1CN(c2ccccc2)S(=O)(=O)[C@@]12CCN(Cc1ccccc1)C2 | 3.088% | - | -33.94%
COCC(=O)Nc1ccc2c(c1)CN(C(=O)c1ccco1)CC2 | 2.722% | 7.973% | 8.738%
CCc1cc(CN2C[C@H]3CC[C@@H]2CN(C2Cc4ccccc4C2)C3)on1 | - | -1.926% | -
CN(C)C1CC2(CCN(C(=O)c3csnn3)CC2)c2ccccc21.O=C(O)C(F)(F)F (configuration not stated) | 43.87% | - | -77.75%
CC1CN(CC(=O)Nc2nncs2)CCN1Cc1nccn1C (configuration not stated) | 12.71% | 0.8746% | 10.56%
NC(=O)CCS(=O)(=O)Cc1ccc(OCC(F)(F)F)cc1 | 19.5% | -4.85% | -45.6%
COc1ccccc1-n1cc(C(=O)NCCCn2nc(C)nc2C)cn1 | 17.85% | 0.3215% | -44.81%
Cc1nnc(CN2CCC(Oc3ccc(C)c(C)c3)CC2)o1 | -0.9624% | -2.062% | 4.446%
Cn1cc(CN2C[C@@H](F)[C@@H](OCc3nc4cnccc4[nH]3)C2)cn1 | 6.915% | 0.3814% | 8.722%
COCCC(=O)N1Cc2nc3c(C)c(-c4cccs4)nn3c(O)c2C1 | 23.92% | -10.06% | -5.694%
Cn1nnc2cc(C(=O)N3CCCC3Cc3ccccc3)ccc21 (configuration not stated) | 2.434% | 4.205% | -47.52%
CC(C)CSCCN1CCN(S(C)(=O)=O)CC1 | -11.46% | 3.484% | 0.9224%
O=C(O)C(F)(F)F.[H][C@@]12CCN(Cc3ccccc3)C[C@]1(C(=O)N1CCCO1)CCO2 | -14.27% | - | 33.11%
Cc1cc(C(=O)N(C)Cc2nc(-c3ccccn3)no2)c(C)o1 | 15.07% | 0.07374% | -90.67%
COc1ccsc1C(=O)Nc1cc(CN2CCOCC2)ccc1C | -11.64% | -1.091% | -5.546%
CN1CCC(N(CCc2ccccc2)C(=O)c2ccc(C#N)nc2)CC1 | -2.624% | -0.1555% | 8.79%
[H][C@]12CC[C@](O)(CC1)C(COC)N2C(=O)N1CCOCC1 (some centres not stated) | 27.05% | - | 32.3%
CCCS(=O)(=O)N1CCOC2(CCCN(c3ccccn3)C2)C1.O=C(O)C(F)(F)F (configuration not stated) | -3.697% | - | -30.47%
CC(C)n1cnc2c1C(C(=O)N1CCOCC1)N(CC1CC1)CC2 (configuration not stated) | - | 0.549% | -
CCC(CNC(=O)c1ccccc1OC)N1CCc2ccccc2C1 (configuration not stated) | 6.323% | 2.734% | -114.5%
O=C(O)C(F)(F)F.[H][C@]12CCC(=O)N(c3cccnc3)[C@@]1([H])CCN2C(=O)c1cnoc1C | 8.689% | - | -19.76%
COCCOc1ccc(CNC2CCc3ncnn3C2)cc1OC (configuration not stated) | 4.159% | -2.88% | -21.63%
[H][C@@]12CCN(Cc3c(C)noc3C)C[C@@]1([H])O[C@@H](c1nccs1)C2 | 9.358% | - | 33.01%
CN(Cc1ccc(F)cc1)C(=O)NCc1nnc2n1CCC2 | 14.35% | -0.0684% | -20.82%
CC(COc1ccccc1)NCc1nc(-c2cccnc2)no1 (configuration not stated) | 25.57% | -4.36% | -11.56%
COc1ccccc1[C@@H]1CN(Cc2ccncc2)C[C@H]1C(=O)O | 15.67% | 1.939% | -20.45%
C[C@@H]1CN(C2CCOC2)C[C@]12CCN(c1cccnc1)C2=O.O=C(O)C(F)(F)F.O=C(O)C(F)(F)F (some centres not stated) | 2.832% | - | -21.9%
CCn1cc(C(=O)NCC2(C(N)=O)CCOCC2)c2ccccc21 | 13.67% | 2.559% | -42.56%
Cl.O=C(NCC(F)F)c1cnc(C2CCCN2)cn1 (configuration not stated) | 35.2% | - | -1.973%
COCC(=O)N1CCC(c2cc(N(C)C)cc(C)n2)CC1 | -22.18% | 12.26% | -
O=C(c1ccccn1)N1CCC(Oc2ncccc2Cl)CC1 | 0.6818% & -4.595% | -6.307% | 2.008%
CSCC(=O)NC1CCN(C(C)c2ccccc2)CC1 (configuration not stated) | 19.28% | 3.177% | -12.74%
O=C(O)C(F)(F)F.[H][C@]12CCC[C@@]1(COCC(=O)N(C)C)CNC2 | 33.77% | - | -24.96%
CCC(CC)C(=O)N1CCC(c2nn(CCN)c3nccnc23)C1 (configuration not stated) | -14.84% | - | -2.454%
O=C1CCCN1CC1CN(C(=O)CC2CCCC2)Cc2nccn2C1 (configuration not stated) | 12.29% | -4.961% | 36.04%
COc1ccc(CN2CCn3cc(CN4CCCCC4)nc3C2)cc1 | - | 3.197% | -
CCC(=O)N1CCCC(c2nc(N(C)C)ncc2-c2ccc(F)cc2)C1 (configuration not stated) | -9.292% | -5.708% | 20.84%
CC(Cn1cccn1)NC(=O)NCCc1cccs1 (configuration not stated) | 27.8% | -5.304% | 12.29%

Repeated from the top, 4 entries:

- COCCn1cc(NC(=O)NCC2CCN(c3ccccc3)C2)cn1 (configuration not stated) : A: 19.43%; B: 3.183%; C: -68.77%
- Cc1nc(CN2CCc3ncnc(-c4ccc(F)cc4)c3CC2)cs1.O=C(O)C(F)(F)F : A: 28.65%
- CN1CC[C@]2(CN(S(C)(=O)=O)C[C@H]2c2ccccc2)C1=O : A: 5.578%; C: -35.05%
- Cc1ccccc1C(C(=O)N(C)CCc1cnn(C)c1)N(C)C (configuration not stated) : A: 20.61%; B: -1.547%; C: -9.407%